Measurements reported in PubChem BioAssay AID504774 (Drosophila RNAi Screening Center, 2011)
Assay: 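Genes required for cells to withstand methyl methanesulphonate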 (primary screen). Cells: Drosophila Kc167 cells. Reagent: long dsRNA against Drosophila genes, about 0.25 µg dsRNA per well. Time to read-out: about 6 days: 3 days knock-down, then 3 days with or without MMS. Conditions: methyl methanesulphonate 0.004% (w/v) for 3 days after knock-down. Measurement: 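Viability in wells given MMS, read as ATP luminescence, normalised by quantiles plate by plate and averaged across replicates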. Scale: mean viability with MMS and viability with MMS: higher = more surviving cells after MMS.
In all, the deposit lists about 23,000 reagents; this is an unselected part of those with a known target gene and a result. 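Values are quantile-normalised luminescence on an arbitrary scale; higher means more cells surviving MMS.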 Further read-outs or replicates are left out here.

gene	amplicon	mean viability with MMS	viability with MMS, replicate 1
CG34006 (retired record)	DRSC13817	3.43e6	3.88e6
Or63a	DRSC08681	3.55e6	4.02e6
twy	DRSC10562	3.72e6	4.11e6
S-Lap3	DRSC10956	3.53e6	3.91e6
Meltrin	DRSC16274	3.61e6	4.19e6
Meltrin	DRSC21693	3.44e6	3.87e6
Hyccin	DRSC06983	3.75e6	4.30e6
prim	DRSC06575	3.78e6	4.42e6
CG17361	DRSC10266	3.44e6	3.86e6
ND-13B	DRSC10643	3.54e6	4.09e6
Pex5	DRSC18552	3.53e6	3.91e6
TotM	DRSC02355	3.52e6	4.06e6
CG7320	DRSC10810	3.66e6	4.11e6
Esp	DRSC16664	3.48e6	3.87e6
CG46298	DRSC06222	3.34e6	3.81e6
CG10841	DRSC14271	3.37e6	3.89e6
Myo28B1	DRSC03375	3.48e6	3.97e6
CG13972	DRSC14715	3.45e6	3.93e6

4 entries from above, sorted by “viability with MMS, replicate 1”, ascending:
gene	amplicon	mean viability with MMS	viability with MMS, replicate 1
CG46298	DRSC06222	3.34e6	3.81e6
Esp	DRSC16664	3.48e6	3.87e6
CG10841	DRSC14271	3.37e6	3.89e6
CG7320	DRSC10810	3.66e6	4.11e6

Continued.
gene	amplicon	mean viability with MMS	viability with MMS, replicate 1
CG9628	DRSC11082	3.53e6	3.95e6
Jhbp4	DRSC14222	3.60e6	4.19e6
Ice2	DRSC14268	3.43e6	3.82e6
CG31233	DRSC15888	3.68e6	4.19e6
Cyp6g1	DRSC07386	3.78e6	4.34e6
S6KL	DRSC19349	3.74e6	4.03e6
S6KL	DRSC21578	3.54e6	4.00e6
S6KL	DRSC23147	3.37e6	3.86e6
CG6791	DRSC16118	3.51e6	3.98e6
Ir60e	DRSC04227	3.63e6	4.04e6
RhoGAPp190	DRSC20097	3.50e6	4.03e6
RhoGAPp190	DRSC20099	3.59e6	4.17e6
eIF2alpha	DRSC20327	3.18e6	3.59e6
CG5623	DRSC15848	3.60e6	4.18e6
Yp2	DRSC18732	3.56e6	4.07e6
CG7781	DRSC03068	3.66e6	4.13e6
CG14787	DRSC18606	3.50e6	4.04e6
CG10713	DRSC09786	3.56e6	3.96e6
CG17068	DRSC20545	3.66e6	4.13e6
Tsp74F	DRSC10508	3.60e6	4.07e6
Tsp33B	DRSC02418	3.16e6	3.69e6
Arp1	DRSC14118	3.45e6	3.97e6
CG11300	DRSC04104	3.53e6	4.06e6
esg	DRSC03530	3.58e6	4.05e6
Lpt	DRSC04291	3.41e6	3.75e6
Lpt	DRSC04515	3.38e6	3.69e6
CG18538	DRSC06765	3.62e6	4.05e6
mRpL28	DRSC02724	3.54e6	3.97e6
